Source: PubChem BioAssay AID1745848 (NCATS, 2022).

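A cell-based luciferase reporter for ATXN2 expression, read by light output at 24 h, with a viability multiplex. Compounds were tested as a dilution series from about 0.0037 to 57 µM. The number is the fitted half-maximal inhibitory concentration (AC50); a lower value means a more potent inhibitor. Calls come from curve class and activity score: actives score 40–100, while inconclusive compounds (weak, partial, poorly fitted or single-point curves) score 1–39.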

Values are in µM. Every entry below has the call inconclusive. Only part of the assay is shown, chiefly results filed as inconclusive. Potencies fitted to partial, single-point or poorly fitting curves are rough. Some entries filed as inconclusive have a full curve. Activity scores are not listed here.

SMILES	Potency (µM)	remark
NS(=O)(=O)c1ccc(N2N=C(c3ccc(Br)cc3)CC2c2ccc(F)cc2)cc1 (stereo unspecified)	35.48	inhibitor, single point
CCN(CC)S(=O)(=O)c1ccc(N/N=C/c2ccc(O)cc2O)nc1	1.778	inhibitor, full curve, poor fit
COc1ccc(Cn2c(-c3ccc(C)cc3)c[n+]3ccccc23)cc1	1.413	inhibitor, partial curve, poor fit
COc1ccc(-n2c(-c3ccc(Cl)cc3)c[n+]3c2CCCCC3)cc1	8.912	inhibitor, partial curve, poor fit
Nn1cnnc1N/N=C/c1cc(Br)cc(Br)c1O	3.548	inhibitor, partial curve
Cc1ccc(NC(=O)CCC(=O)c2cc(C)sc2C)nc1	31.62	inhibitor, single point
CCOc1cc(/C=N\NC(=O)c2ccc(NC(=O)CC)cc2)ccc1OC(=O)c1ccccc1	22.39	inhibitor, single point
CN(C)CCCNC(=O)/C=C/c1ccc(OCc2c(F)cccc2Cl)cc1	22.39	inhibitor, single point
CCOC(=O)C(CC)(CC)C(=O)/C=C/c1ccc(OC)cc1	25.12	inhibitor, single point
COc1ccc(C(=O)NC(=S)NNC(=O)c2cnccn2)cc1	1.778	inhibitor, partial curve, poor fit
Cc1ncc(CO)c(/C=N/NC(=O)c2cccc(S(=O)(=O)N3CCCC3)c2)c1O	22.39	inhibitor, single point
COc1ccc(Br)cc1C(=O)NC(=S)Nc1ccc(CN2CCOCC2)cc1	25.12	inhibitor, single point
COC12C(COC(N)=O)C3=C(C(=O)C(C)=C(N)C3=O)N1CC1C2N1C (stereo unspecified)	10	inhibitor, partial curve, poor fit
O=C(c1ccco1)N(CCCN1CCOCC1)c1nc(-c2ccc(Cl)cc2)cs1	2.818	inhibitor, partial curve
O=C(CSc1nnc(-c2ccccc2)o1)Nc1ccccc1F	2.512	inhibitor, single point
CCOC(=O)CSc1cccc2cccnc12	28.18	inhibitor, single point
CS(=O)(=O)N1CCC(Oc2cccc(C(=O)NCCCC3CCCC3)c2)CC1	22.39	inhibitor, partial curve, poor fit
O=C(CN1CCCc2ccccc21)N/N=C/c1ccccc1O	1.585	inhibitor, partial curve
COc1ccc2c(c1)c[n+](C)c1c3cc(OC)c(OC)cc3ccc21	10	inhibitor, partial curve, poor fit
COc1ccc(-c2n[nH]c(C)c2-c2cnn(-c3ccccc3)c2)c(O)c1C	28.18	inhibitor, partial curve, poor fit
O=C(CCC(=O)Nc1ccc(Br)cc1)N/N=C/c1ccccc1O	3.981	inhibitor, single point
CCOC(=O)c1c(C)nn(-c2ccc(NC(=O)c3cccs3)cc2)c1C	35.48	inhibitor, single point
CCN(CCCn1c(=S)[nH]c2ccc(N3CCOCC3)cc2c1=O)c1ccccc1	1.778	inhibitor, partial curve
O=C1Nc2c(Br)cc(Br)c3cccc1c23	25.12	inhibitor, single point
Cc1ccc(-c2nnc(N3CCC(C)CC3)c3ccccc23)cc1C	3.162	inhibitor, partial curve
CN(C)CCCN(C(=O)c1ccc(S(=O)(=O)N(C)Cc2ccccc2)cc1)c1nc2c(F)cccc2s1	39.81	inhibitor, single point
c1ccc(COc2ncnc3c2ncn3CCCN2CCN(Cc3cccc4ccccc34)CC2)cc1	25.12	inhibitor, partial curve, poor fit
COc1ccc(C)cc1NC(=O)C(Sc1nnc(-c2ccncc2)n1-c1ccc(Cl)cc1)c1ccccc1 (stereo unspecified)	3.548	inhibitor, single point
COc1cccc(Nc2nc(C(N)Cc3ccc(F)cc3)cs2)n1 (stereo unspecified)	17.78	inhibitor, partial curve, poor fit
COC(=O)c1c(C)oc2ccc(N(C(=O)c3ccncc3)S(=O)(=O)c3ccc(C)cc3C)cc12	3.162	inhibitor, partial curve
CCOc1ccc(NC(=O)Nc2nnc(CC(=O)NCc3ccccc3)s2)cc1	28.18	inhibitor, single point
NNc1ccc(Cc2ccc(Cl)cc2Cl)nn1	25.12	inhibitor, partial curve, poor fit
CN(C)c1ccc(Cc2cc3c(O)ccc(O)c3cc(Cc3ccc(N(C)C)cc3)c2=O)cc1	3.981	inhibitor, partial curve
CCOc1cc([C@@H]2C[C@H]3CN(c4ccccc4)C(=O)[C@]34CCCN24)ccc1OC	10	inhibitor, partial curve, poor fit
O=C(CC1Sc2ccccc2NC1=O)NNc1cccc(Cl)c1Cl (stereo unspecified)	2.818	inhibitor, partial curve
O=C1C(Cl)=C(N2CCC(C(=O)O)CC2)C(=O)c2ccccc21	19.95	inhibitor, single point
OC1(c2ccc(Cl)cc2)CCN(Cc2c[nH]c3ccccc23)CC1	3.981	inhibitor, partial curve
O=C(NC(c1ccccc1)c1c(O)ccc2ccccc12)c1ccccc1Cl (stereo unspecified)	4.467	inhibitor, single point
CCN1CCN(c2cc(C(C)C)nc3c(-c4ccccc4)c(C)nn23)CC1	25.12	inhibitor, partial curve, poor fit
CN1CCC(N(C)S(=O)(=O)c2ccc(NC(=O)COc3ccc(Br)cc3Cl)cc2)CC1	31.62	inhibitor, single point
COc1cccc(Nc2nc(C(N)CCc3ccccc3)cs2)n1 (stereo unspecified)	28.18	inhibitor, partial curve, poor fit
CN1CCC2(CC1)N=C(c1ccc(F)cc1)C(=S)N2C(=O)c1ccc(C(C)(C)C)cc1	31.62	inhibitor, single point
COC(=O)COc1ccc(-c2nccc(-c3ccccn3)n2)cc1	0.7079	inhibitor, full curve
Cc1cccc(C(=O)N/N=C2\CS(=O)(=O)N(C)c3ccsc32)c1	17.78	inhibitor, partial curve, poor fit
CCn1cc(C(=O)NCCCN2CCCC(C)C2)c(=O)c2cc(S(=O)(=O)N3CCc4ccccc4C3)ccc21 (stereo unspecified)	19.95	inhibitor, partial curve, poor fit
CC1(C)CCN2CCC(C)(C)c3c(O)ccc1c32	3.548	inhibitor, partial curve
CC(C)(C)OC(=O)NNc1c2ccccc2nc2ccccc12	4.467	inhibitor, partial curve, poor fit
CC(=NNC(=O)c1ccncc1)c1ccccc1O	8.912	inhibitor, partial curve, poor fit
COc1ccc2c(c1)CC(N1CCN(C)CC1)c1cc(OC)ccc1S2 (stereo unspecified)	22.39	inhibitor, partial curve, poor fit

4 of the entries, repeated:

SMILES,Potency (µM),remark
CC1(C)CCN2CCC(C)(C)c3c(O)ccc1c32,3.548,"inhibitor, partial curve"
COc1ccc(Cn2c(-c3ccc(C)cc3)c[n+]3ccccc23)cc1,1.413,"inhibitor, partial curve, poor fit"
CN1CCC(N(C)S(=O)(=O)c2ccc(NC(=O)COc3ccc(Br)cc3Cl)cc2)CC1,31.62,"inhibitor, single point"
O=C(CCC(=O)Nc1ccc(Br)cc1)N/N=C/c1ccccc1O,3.981,"inhibitor, single point"